This assay addresses T1, mouse CDC45, yeast two-hybrid fusion (mouse) (UniProt Q9Z1X9).
T1 sequence: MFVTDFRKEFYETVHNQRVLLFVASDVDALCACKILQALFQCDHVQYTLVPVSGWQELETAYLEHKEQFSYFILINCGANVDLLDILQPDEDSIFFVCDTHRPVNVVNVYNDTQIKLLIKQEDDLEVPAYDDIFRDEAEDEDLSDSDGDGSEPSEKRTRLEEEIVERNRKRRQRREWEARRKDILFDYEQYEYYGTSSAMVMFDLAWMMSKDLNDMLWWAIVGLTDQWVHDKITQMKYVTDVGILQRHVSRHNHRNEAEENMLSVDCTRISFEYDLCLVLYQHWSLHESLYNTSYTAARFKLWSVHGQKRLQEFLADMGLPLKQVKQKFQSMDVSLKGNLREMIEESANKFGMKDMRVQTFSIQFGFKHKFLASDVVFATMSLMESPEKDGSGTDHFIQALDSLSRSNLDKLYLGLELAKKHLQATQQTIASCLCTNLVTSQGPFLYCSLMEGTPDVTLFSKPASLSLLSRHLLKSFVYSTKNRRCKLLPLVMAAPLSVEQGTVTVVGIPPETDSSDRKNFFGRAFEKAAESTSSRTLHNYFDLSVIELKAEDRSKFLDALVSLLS
Description: two-hybrid.

No constants are given. Whether binding was seen depends on the method and setting. Some results given as binding are weak or reduced against the parent protein; the word gives no strength. Sequences can lack the tags named with a protein.

B1: USP37 1-119 (USP37-PH domain), yeast two-hybrid fusion (domain or fragment, UniProt Q8C0R0 1-119)
chain: MSPLKIYGPIRIRSMQTGITKWKEGSFEIVEKDNRVSLLVHYNTGGIPRVFQLSHNIKNVVLRPSGIKQSRLMLTLQDNSFLSIDKVPSKDAEEMRLFLDAVHQNRLHAAMKASQGSGS
Take B1: the binding entry was “binds”.

The values above are taken from paper doi:10.1101/2024.09.03.610971.
